Measured values: publication doi:10.1101/2020.01.26.920405
Results are given in words; binding and its absence hold for the method and conditions named. In cells and extracts the contact can be indirect. Some entries that bind do so weakly or less than the wild type.

Amino acid sequences for entries named in this document (tags omitted).
UniProt P16455: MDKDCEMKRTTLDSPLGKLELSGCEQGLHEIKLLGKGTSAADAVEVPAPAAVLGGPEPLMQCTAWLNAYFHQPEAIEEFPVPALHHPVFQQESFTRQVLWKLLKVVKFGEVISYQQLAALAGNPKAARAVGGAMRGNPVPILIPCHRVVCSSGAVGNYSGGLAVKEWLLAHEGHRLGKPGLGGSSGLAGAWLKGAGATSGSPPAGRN
UniProt P09874: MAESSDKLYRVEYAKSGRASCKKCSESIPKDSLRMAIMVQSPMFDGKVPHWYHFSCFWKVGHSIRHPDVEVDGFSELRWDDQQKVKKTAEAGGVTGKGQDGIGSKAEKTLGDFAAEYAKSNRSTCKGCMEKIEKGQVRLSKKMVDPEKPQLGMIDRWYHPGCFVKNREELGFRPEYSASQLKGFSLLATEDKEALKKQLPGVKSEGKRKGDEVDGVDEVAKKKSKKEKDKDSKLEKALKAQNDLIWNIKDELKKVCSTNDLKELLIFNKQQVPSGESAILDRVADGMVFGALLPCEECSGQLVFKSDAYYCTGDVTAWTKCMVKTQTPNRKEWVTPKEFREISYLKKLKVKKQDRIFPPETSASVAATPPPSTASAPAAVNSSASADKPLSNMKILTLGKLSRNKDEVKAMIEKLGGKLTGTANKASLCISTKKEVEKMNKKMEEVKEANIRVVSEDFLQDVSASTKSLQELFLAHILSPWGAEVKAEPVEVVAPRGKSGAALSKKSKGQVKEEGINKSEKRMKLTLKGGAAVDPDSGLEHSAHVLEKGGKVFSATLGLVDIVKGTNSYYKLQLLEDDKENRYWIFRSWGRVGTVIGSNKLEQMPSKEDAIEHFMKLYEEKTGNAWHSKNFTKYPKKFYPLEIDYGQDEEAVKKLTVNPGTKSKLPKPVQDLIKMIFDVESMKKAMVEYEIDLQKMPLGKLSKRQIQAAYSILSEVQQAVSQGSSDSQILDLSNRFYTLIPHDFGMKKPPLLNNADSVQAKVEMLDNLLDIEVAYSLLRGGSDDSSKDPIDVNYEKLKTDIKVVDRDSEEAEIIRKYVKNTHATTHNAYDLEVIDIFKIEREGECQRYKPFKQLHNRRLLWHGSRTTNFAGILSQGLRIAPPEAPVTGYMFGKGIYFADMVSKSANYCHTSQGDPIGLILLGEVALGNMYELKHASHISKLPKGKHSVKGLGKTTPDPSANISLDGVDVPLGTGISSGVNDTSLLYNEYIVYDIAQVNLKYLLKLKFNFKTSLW

Biological target: O6-methylguanine-DNA methyltransferase (MGMT), endogenous in EW-8 cells (human (endogenous in EW-8)) (UniProt P16455)
Experiment: co-IP

Poly(ADP-ribose) polymerase 1 (PARP1), endogenous in EW-8 cells (from UniProt P09874 1-1014)
binding: binds
